Positions count from the first letter of the chain named. Results are given in words; binding and its absence hold for the method and conditions named. Some results given as binding are weak or reduced against the parent protein; the word gives no strength.
Key:
[1] = target: T1, C-terminus-biotin labeled compound 1 (an N-terminus peptide of FGF-8; SEQ ID NO:15) (human); test: BIAcore 2000, C-terminus-biotin labeled FGF-8 peptide on SA chip (item 7 of Example 3)
T1 sequence (peptide, C-terminus-biotin labeled): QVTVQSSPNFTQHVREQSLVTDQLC

[2] = target: T1, C-terminus-biotin labeled compound 1 (an N-terminus peptide of FGF-8; SEQ ID NO:15) (human); test: BIAcore 2000, C-terminus-biotin labeled FGF-8 peptide on SA chip, antibody as analyte, RU compared
[3] = target: T2, FGF-8 (manufactured by R&D) (UniProt P55075); test: BIAcore 2000, FGF-8 amine-coupled to CM5, antibody as analyte, height of binding (RU) compared
T2 sequence (looked up): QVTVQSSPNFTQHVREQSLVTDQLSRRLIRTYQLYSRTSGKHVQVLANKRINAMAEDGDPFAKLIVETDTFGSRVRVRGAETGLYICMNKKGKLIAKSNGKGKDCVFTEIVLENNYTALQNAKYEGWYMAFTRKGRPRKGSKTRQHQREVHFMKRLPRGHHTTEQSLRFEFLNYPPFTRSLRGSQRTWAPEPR

[4] = target: T2, FGF-8 (manufactured by R&D); test: BIAcore 2000, FGF-8 amine-coupled to CM5

B1: anti-FGF-8 CDR-grafted antibody HV0LV4-1/CHO (antibody, V domains shown)
VH: QVQLVQSGAEVKKPGASVKVSCKASGYTFTDYYLNWVRQAPGQGLEWMGEIDPGSDSIYYNENLEGRVTITADTSTSTAYMELSSLRSEDTAVYYCARYGYSRYDVRFVYWGQGTLVTVSS
VL: DVVMTQSPLSLPVTPGEPASISCRSSQSLVHSNGRTYLEWYLQKPGQSPKVLIYKVSNRISGVPDRFSGSGSGTDFTLKISRVEAEDVGVYFCFQGSHVPYTFGQGTKVEIK
[1]
  binding: binds
[2]
  binding: binds

B2: anti-FGF-8 CDR-grafted antibody HV0LV2-1/CHO (antibody, V domains shown)
VH: B1 VH
VL: B1 VL with V2I, K50Q
[1]
  binding: binds
[2]
  binding: binds

B3: anti-FGF-8 CDR-grafted antibody HV0LV3-3/CHO (antibody, V domains shown)
VH: B1 VH
VL: B1 VL with V2I, T14S, P15L, K50Q, F92Y
[2]
  binding: binds

B4: anti-FGF-8 chimeric antibody KM3334 (antibody, V domains shown)
VH: QVQLQQSGAEVARPGASVKLSCKASGYTFTDYYLNWVKQRSGQGLEWIGEIDPGSDSIYYNENLEGRATLTADKSSSTAYMQLNSLTSEDSAVYFCARYGYSRYDVRFVYWGQGTLVTVST
VL: B1 VL with V3L, S7T, T14S, P15L, E17D, P18Q, V88L, Q105G, V109L
notes: Same expression vector pKANTEX1334 as KM3034 (human gamma1 / kappa constant regions), expressed in YB2/0 cells; also called KiM3334; YB2/0-derived anti-FGF-8 chimeric antibody
[3]
  binding: binds

B5: anti-FGF-8 CDR-grafted antibody HV0LV6 (antibody, V domains shown)
VH: B1 VH
VL: B1 VL with T14S, P15L
notes: YB2/0-derived, vector pKANTEX1334HV0LV6 (from pKANTEX93, human constant regions); also called KM8037
[3]
  binding: binds
[4]
  binding: binds

B6: anti-FGF-8 CDR-grafted antibody HV0LV0 (antibody, V domains shown)
VH: B1 VH
VL: B1 VL with V2I, K50Q, V51L, F92Y
notes: YB2/0-derived, vector pKANTEX1334HV0LV0 (from pKANTEX93, human constant regions)
[3]
  binding: binds

B7: anti-FGF-8 CDR-grafted antibody HV6LV6 (antibody, V domains shown)
VH: B1 VH with K12A, K13R, A40R, P41S, M48I, Y95F
VL: B1 VL with T14S, P15L
notes: YB2/0-derived, vector pKANTEX1334HV6LV6 (from pKANTEX93, human constant regions)
[3]
  binding: binds
